Data from PMC10454142.

B1: Arabidopsis RAD7b (AtRAD7b, At4g15475) (protein, UniProt Q9C5D2 1-610)
chain: MRGHDRINNCLPEELILEIFRRLESKPNRDACSLVCKRWLSLERFSRTTLRIGASFSPDDFISLLSRRFLYITSIHVDERISVSLPSLSPSPKRKRGRDSSSPSSSKRKKLTDKTHSGAENVESSSLTDTGLTALANGFPRIENLSLIWCPNVSSVGLCSLAQKCTSLKSLDLQGCYVGDQGLAAVGKFCKQLEELNLRFCEGLTDVGVIDLVVGCSKSLKSIGVAASAKITDLSLEAVGSHCKLLEVLYLDSEYIHDKGLIAVAQGCHRLKNLKLQCVSVTDVAFAAVGELCTSLERLALYSFQHFTDKGMRAIGKGSKKLKDLTLSDCYFVSCKGLEAIAHGCKELERVEINGCHNIGTRGIEAIGKSCPRLKELALLYCQRIGNSALQEIGKGCKSLEILHLVDCSGIGDIAMCSIAKGCRNLKKLHIRRCYEIGNKGIISIGKHCKSLTELSLRFCDKVGNKALIAIGKGCSLQQLNVSGCNQISDAGITAIARGCPQLTHLDISVLQNIGDMPLAELGEGCPMLKDLVLSHCHHITDNGLNHLVQKCKLLETCHMVYCPGITSAGVATVVSSCPHIKKVLIEKWKVTERTTRRAGSVISYLCMDL
B2: Arabidopsis RAD4 (AtRAD4) (protein, UniProt Q8W489 1-865)
chain: MKSRSESKNCRLAQASRVAVNKVLDKSSARGSRGKKKQDDNCDSAKRDKGVNGKGKQALDARLIDNVLEDRGCGNVDDDEMNDSDWEDCPIPSLDSTVDDNNVDDTRELTIEFDDDVPDAKKQKNAYRATAEDKVRAELVHKVHLLCLLARGRIVDSACNDPLIQAALLSLLPSYLTKVSNLEKVTVKDIAPLLRWVRENFSVSCSPSSEKSFRTSLAFALESRKGTAEELAALAVALLRALKLTTRFVSILDVASLKPGADRNESSGQNRAKMKHGIFRTSTLMVPKQQAISSYPKKSSSHVKNKSPFEKPQLGNPLGSDQVQDNAVNSSCEAGMSIKSDGTRRKGDVEFERQIAMALSATADNQQSSQVNNTKKVREITKISNSSSVSDQVISTAFGSKKVDSPLCWLEVYCNGENMDGKWVHVDAVNGMIDAEQNIEAAAAACKTVLRYVVAFAAGGAKDVTRRYCTKWHTISSKRVSSVWWDMVLAPLVHLESGATHDEDIALRNFNGLNPVSSRASSSSSSFGIRSALEDMELATRALTESLPTNQQAYKSHEIYAIEKWLHKNQILHPKGPVLGFCSGHPVYPRTCVQTLKTKERWLRDGLQLKANEVPSKILKRNSKFKKVKDFEDGDNNIKGGSSCMELYGKWQMEPLCLPPAVNGIVPKNERGQVDVWSEKCLPPGTVHLRFPRIFAVAKRFGIDYAPAMVGFEYRSGGATPIFEGIVVCTEFKDTILEAYAEEQEKKEEEERRRNEAQAASRWYQLLSSILTRERLKNRYANNSNDVEAKSLEVNSETVVKAKNVKAPEKQRVAKRGEKSRVRKSRNEDESHEHVFLDEEETFDEETSVKTKRCKCGFSVEVEQM
B3: Arabidopsis DDB2 (AtDDB2, At5g58760) (protein, UniProt Q6NQ88 1-557)
chain: MSSTRSRRKRDPEIVIARDTDSELSSSEEEEEEEDNYPFSESEEEDEAVKNGGKIELEKNKAKGKAPITVKLIKKVCKVCKQPGHEAGFKGATYIDCPMKPCFLCKMPGHTTMSCPHRVVTDHGILPTSHRNTKNPIDFVFKRQLQPRIPPIKPKYVIPDQVHCAVIRYHSRRVTCLEFHPTKNNILLSGDKKGQIGVWDFGKVYEKNVYGNIHSVQVNNMRFSPTNDDMVYSASSDGTIGYTDLETGTSSTLLNLNPDGWQGANSWKMLYGMDINSEKGVVLAADNFGFLHMIDHRTNNSTGEPILIHKQGSKVCGLDCNPVQPELLLSCGNDHFARIWDMRKLQPKASLHDLAHKRVVNSAYFSPSSGTKILTTCQDNRIRIWDSIFGNLDLPSREIVHSNDFNRHLTPFKAEWDPKDTSESLIVIGRYISENYNGTALHPIDFIDASNGQLVAEVMDPNITTITPVNKLHPRDDVLASGSSRSLFIWRPQDNTEMVEEKKDKKIIICYGDSKKKGKKQKRGSDDEDDEDDIFSSKGKNIKVNKYQAKTTKKTKT
B4: Arabidopsis RAD23b (AtRAD23b, At1g79650) (protein, UniProt Q84L33 1-371)
chain: MKLTVKTLKGSHFEIRVLPSDTIMAVKKNIEDSQGKDNYPCGQQLLIHNGKVLKDETSLVENKVTEEGFLVVMLSKSKSGGSAGQASVQTSSVSQPVSATTSSTKPAAPSTTQSSPVPASPIPAQEQPAAQTDTYGQAASTLVSGSSLEQMVQQIMEMGGGSWDKETVTRALRAAYNNPERAVDYLYSGIPQTAEVAVPVPEAQIAGSGAAPVAPASGGPNSSPLDLFPQETVAAAGSGDLGTLEFLRNNDQFQQLRTMVHSNPQILQPMLQELGKQNPQLLRLIQENQAEFLQLVNEPYEGSDGEGDMFDQPEQEMPHAINVTPAEQEAIQRLEAMGFDRALVIEAFLACDRNEELAANYLLENSGDFED

The binders below were run against Arabidopsis RAD16 (AtRAD16, At1g05120) (Arabidopsis thaliana) (assay: two-hybrid; GAL-4 Matchmaker Gold yeast two-hybrid; haploid Y2HGold and Y187 strains mated; diploids spotted on quadruple drop-out medium (-ade -his -leu -trp), double drop-out (-trp -leu) as control; ADE2 and HIS3 reporters).

| Binder | binding |
| --- | --- |
| B1 | no binding |
| B2 | no binding |
| B3 | no binding |
| B4 | no binding |

Results are given in words; binding and its absence hold for the method and conditions named.
